No constants are given. Whether binding was seen depends on the method and setting. In cells and extracts the contact can be indirect. Some entries that bind do so weakly or less than the wild type.
Experiments:
[1] = target: HA-β-TrCP (beta-transducin repeats-containing protein) (UniProt Q9Y297); assay: co-IP; SW1116 cells transfected with FLAG-YAP and HA-β-TrCP, MG132 (20 μM, 10 h); with or without ΔN-KA-EE-MEK (complete or serum-free medium), LMB or trametinib (100 nM, 24 h); IP with anti-TrCP; blots with anti-TrCP and anti-YAP
[2] = target: FLAG-YAP (UniProt P46937); assay: co-IP; SW1116 cells transfected with HA-β-TrCP and FLAG-YAP; nuclei separated by Nuclear Extraction Kit and lysed with IP lysis buffer; IP with anti-FLAG; blots with anti-TrCP and anti-YAP

Protein sequences, listed by entry. Tags and fused reporters are not part of them.
UniProt Q9Y297: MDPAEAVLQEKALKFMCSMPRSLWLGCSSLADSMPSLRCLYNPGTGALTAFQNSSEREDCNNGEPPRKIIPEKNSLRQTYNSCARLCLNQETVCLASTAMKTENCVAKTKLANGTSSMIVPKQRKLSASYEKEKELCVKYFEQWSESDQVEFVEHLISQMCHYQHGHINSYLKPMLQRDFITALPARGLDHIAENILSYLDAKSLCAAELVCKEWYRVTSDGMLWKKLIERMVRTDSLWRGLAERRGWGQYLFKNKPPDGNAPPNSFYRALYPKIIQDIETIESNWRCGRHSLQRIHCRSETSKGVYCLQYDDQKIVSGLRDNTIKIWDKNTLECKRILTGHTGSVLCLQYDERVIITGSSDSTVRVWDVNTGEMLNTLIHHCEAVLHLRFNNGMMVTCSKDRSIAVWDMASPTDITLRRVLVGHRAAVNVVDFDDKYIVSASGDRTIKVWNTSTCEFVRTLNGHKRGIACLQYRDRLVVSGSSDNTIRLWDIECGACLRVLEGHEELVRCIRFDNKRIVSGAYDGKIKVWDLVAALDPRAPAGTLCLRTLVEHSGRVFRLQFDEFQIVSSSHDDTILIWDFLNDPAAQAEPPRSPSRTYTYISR
UniProt P46937: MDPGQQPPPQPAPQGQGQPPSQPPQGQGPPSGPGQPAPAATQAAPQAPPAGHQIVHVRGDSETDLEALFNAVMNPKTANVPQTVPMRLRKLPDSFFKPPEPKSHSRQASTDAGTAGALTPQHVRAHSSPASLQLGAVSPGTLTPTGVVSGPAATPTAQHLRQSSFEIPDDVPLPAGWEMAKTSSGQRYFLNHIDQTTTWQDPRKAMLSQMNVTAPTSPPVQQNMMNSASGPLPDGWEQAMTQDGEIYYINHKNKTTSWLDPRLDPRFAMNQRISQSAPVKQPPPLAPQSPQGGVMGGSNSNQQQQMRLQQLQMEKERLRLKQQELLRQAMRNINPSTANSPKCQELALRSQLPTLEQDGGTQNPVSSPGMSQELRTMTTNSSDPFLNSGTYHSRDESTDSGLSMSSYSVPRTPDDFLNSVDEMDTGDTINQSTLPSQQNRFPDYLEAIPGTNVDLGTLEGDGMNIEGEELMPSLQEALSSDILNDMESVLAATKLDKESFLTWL

Row | binding [1] | Substance | binding [2]
1 | binds | FLAG-YAP (from UniProt P46937 1-504) | 
2 |  | HA-β-TrCP (beta-transducin repeats-containing protein) (from UniProt Q9Y297 1-605) | no binding (condition: in the lysate of separated nuclei)

— publication PMC6889282
